Measured values as given in patent publication US20070071782A1, “2-Cyanobenzenesulfonamides for combating animal pests” (priority 2003, published 2007).
Some results were stated once for a whole list of compounds, not compound by compound.

Key:
Type in all cases: in vivo
[1] = tested on: 2-spotted Spider Mite (Tetranychus urticae, OP-Resistant Strain); assay: 2-spotted Spider Mite test on dipped lima bean plants; conditions: 300 ppm, after 5 days
[2] = tested on: Silverleaf whitefly (Bemisia argentifolil); assay: Silverleaf whitefly test on dipped cotton cotyledons; conditions: 300 ppm, whitefly adults, 3 days after treatment
[3] = tested on: Florida Carpenter Ant (Camponotus floridanus); assay: Florida Carpenter Ant honey/water bait test in petri dishes; conditions: 1% by weight (w/w) active ingredient in 20% honey/water bait; after 10 days

CCNS(=O)(=O)c1cccc(C)c1C#N [Compound 30]
mortality compared to untreated controls [1]: over 75%

Cc1c(Br)ccc(S(=O)(=O)NC(C)C)c1C#N [Compound 8]
mortality compared to untreated controls [1]: over 75%

C#CCNS(=O)(=O)c1cccc(OC)c1C#N [Compound 42]
mortality compared to untreated controls [2]: over 70%

N#Cc1c(OC(F)F)cccc1S(N)(=O)=O [Compound 78]
mortality compared to untreated controls [3]: over 85%

CCNS(=O)(=O)c1ccc(Br)c(C)c1C#N [Compound 5]
mortality compared to untreated controls [2]: over 70%

CCNS(=O)(=O)c1cccc(OC(F)F)c1C#N [Compound 66]
mortality compared to untreated controls [3]: over 85%

C#CCNS(=O)(=O)c1cccc(OC(F)F)c1C#N [Compound 79]
mortality compared to untreated controls [3]: over 85%
